Protein sequences, listed by entry. Tags and fused reporters are not part of them.
UniProt P03372, whole entry, looked up: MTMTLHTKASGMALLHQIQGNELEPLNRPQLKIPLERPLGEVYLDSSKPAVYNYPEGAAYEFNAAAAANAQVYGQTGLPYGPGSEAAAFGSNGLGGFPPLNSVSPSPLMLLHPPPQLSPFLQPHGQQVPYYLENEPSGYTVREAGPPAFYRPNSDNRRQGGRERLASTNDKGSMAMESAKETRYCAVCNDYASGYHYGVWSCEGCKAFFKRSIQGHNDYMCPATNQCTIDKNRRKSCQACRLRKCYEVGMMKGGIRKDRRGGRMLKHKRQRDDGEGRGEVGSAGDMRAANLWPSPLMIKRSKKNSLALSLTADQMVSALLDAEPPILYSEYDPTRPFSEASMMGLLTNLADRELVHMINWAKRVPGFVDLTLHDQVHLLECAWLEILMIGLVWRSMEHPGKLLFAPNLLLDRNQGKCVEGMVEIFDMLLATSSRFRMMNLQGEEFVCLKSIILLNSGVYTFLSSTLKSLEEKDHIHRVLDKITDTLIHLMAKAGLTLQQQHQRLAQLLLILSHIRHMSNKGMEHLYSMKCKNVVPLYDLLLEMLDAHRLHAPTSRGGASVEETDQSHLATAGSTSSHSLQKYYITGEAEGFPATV

For some of these results: What follows is the remainder of the data, with few or none of the hits. Results filed as inconclusive are left out. The list shows a part of the results, in another mix than the full data. Activity calls are given as the source filed them. Rule for the calls, unless noted: active = hit-call score of the fitted dose curve at least 0.9, where 1 is the maximum; inconclusive = response in the unintended direction; inactive = score below 0.9.
Tested on: not listed separately
Assay: ACEA_AR_antagonist_AUC_viability: ACEA Biosciences xCELLigence Real-Time Cell Analysis on Androgen Receptor Antagonism for Viability (AID 2283776);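 note: 22Rv1 human prostate cancer cells growing on impedance electrode plates; area under impedance growth curve at 80 h after dosing as viability; hits lower the growth signal relative to DMSO meaning cytotoxicity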
In short: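 Viability endpoint from label-free cell-index monitoring: 22Rv1 cultures treated with an eight-point 1:4 dilution series starting at 100 uM final, AUC at 80 h fitted against DMSO.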
For `CC(O)CN(CC(C)O)CC(C)O` (centres undefined), the outcome was “inactive”. In the case of `Fc1ccc(C2(Cn3cncn3)OC2c2ccccc2Cl)cc1` (centres undefined), the outcome is reported as “inactive”. For `CCOC(=O)c1ccccc1N`, the outcome was “inactive”. With `CCOP(=O)(OCC)Oc1ccc([N+](=O)[O-])cc1` the outcome was “inactive”. For `CCCCOCCOC(C)=O`, the outcome was “inactive”. For `COc1cc(OC)nc(NC(=O)NS(=O)(=O)c2ncccc2C(=O)N(C)C)n1`, the outcome was “inactive”. For `COc1ccc(C=O)cc1OC`, the outcome was “inactive”. For `CCOC(=O)COc1ccc(Cl)cc1Cl`, the outcome was “inactive”. In the case of `O=S(=O)(c1ccc(O)cc1)c1ccc(O)cc1`, the outcome is reported as “inactive”. In the case of `C[C@]12CC[C@H](O)CC1=CC[C@@H]1[C@@H]2CC[C@]2(C)C(=O)CC[C@@H]12`, the outcome is reported as “inactive”. With `Cc1ccc(OP(=O)(Oc2ccc(C)cc2)Oc2ccc(C)cc2)cc1` (tested in a mixture with another compound) the outcome was “inactive”. For `C=CCN=C=S`, the outcome was “inactive”. For `CCOP(=O)(OCC)OCC`, the outcome was “inactive”. With `CC1CCCC1.[C-]#[O+].[C-]#[O+].[C-]#[O+].[Mn]` the outcome was “inactive”. For `CCC[CH2][Sn]([Cl])([Cl])[Cl]`, the outcome was “inactive”. In the case of `CC(C)OC(=O)Nc1ccccc1`, the outcome is reported as “inactive”.

Target: Estrogen receptor (Homo sapiens) (UniProt P03372)
Assay: CCTE_Deisenroth_AIME_384WELL_LUC_Shift: CCTE's 384-well Estrogen Receptor Transactivation Assay with AIME metabolic competence data shift (ERTA luciferase; difference in metabolism positive and negative), Deisenroth Lab (AID 2284041; active = hit-call score of the fitted dose curve at least 0.9, where 1 is the maximum; inactive = score below 0.9;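 note: shift is response with S9 minus without S9 so positive means metabolism raised ER signal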)
In short: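 Here, parent compounds undergo 2 h phase I metabolism by PB/BNF-induced rat S9 before 24 h transactivation in VM7Luc4E2 cells; the curve models S9-positive minus S9-negative response over a 10-point series.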
In the case of `Cc1ccccc1O`, the outcome is reported as “inactive”. In the case of `CC(C)OC(=O)Nc1ccccc1`, the outcome is reported as “inactive”. With `OCCOCCO` the outcome was “inactive”.

Reference: PubChem BioAssay (EPA / NIEHS)
